Reference: the supplement of paper PMC10849652
This is one part of the list.

Sequences of proteins named here, by UniProt entry; tags and fusion partners are left off. A change or cut given only in a name is not applied to a line headed by its entry.
UniProt P02787, whole entry, looked up: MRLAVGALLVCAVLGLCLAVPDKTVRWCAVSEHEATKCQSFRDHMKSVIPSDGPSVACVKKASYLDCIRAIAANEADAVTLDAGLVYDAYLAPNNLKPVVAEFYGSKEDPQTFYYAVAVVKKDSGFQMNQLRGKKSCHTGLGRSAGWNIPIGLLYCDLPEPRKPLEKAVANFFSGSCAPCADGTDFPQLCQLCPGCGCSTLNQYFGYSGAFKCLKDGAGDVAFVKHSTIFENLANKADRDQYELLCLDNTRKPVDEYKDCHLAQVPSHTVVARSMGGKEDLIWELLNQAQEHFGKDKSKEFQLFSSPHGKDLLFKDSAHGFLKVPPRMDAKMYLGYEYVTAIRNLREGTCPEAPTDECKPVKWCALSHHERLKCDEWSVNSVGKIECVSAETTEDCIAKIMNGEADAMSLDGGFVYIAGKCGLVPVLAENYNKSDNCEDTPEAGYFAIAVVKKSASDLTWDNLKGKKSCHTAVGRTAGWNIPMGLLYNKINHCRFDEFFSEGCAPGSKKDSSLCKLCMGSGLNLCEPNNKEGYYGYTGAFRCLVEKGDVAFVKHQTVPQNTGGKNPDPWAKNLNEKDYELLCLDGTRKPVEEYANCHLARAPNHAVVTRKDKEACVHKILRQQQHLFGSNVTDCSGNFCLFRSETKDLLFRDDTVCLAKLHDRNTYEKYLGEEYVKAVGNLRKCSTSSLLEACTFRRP
UniProt P37837: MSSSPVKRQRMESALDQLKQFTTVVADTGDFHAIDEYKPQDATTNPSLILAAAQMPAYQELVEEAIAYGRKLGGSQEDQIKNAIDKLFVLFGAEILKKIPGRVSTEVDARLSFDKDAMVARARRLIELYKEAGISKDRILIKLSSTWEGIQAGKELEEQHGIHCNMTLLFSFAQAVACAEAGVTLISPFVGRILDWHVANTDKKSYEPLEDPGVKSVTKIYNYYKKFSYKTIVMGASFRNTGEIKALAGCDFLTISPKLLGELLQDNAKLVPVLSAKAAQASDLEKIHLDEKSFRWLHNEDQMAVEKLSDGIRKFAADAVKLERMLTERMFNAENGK
UniProt Q9NUW8, whole entry, looked up: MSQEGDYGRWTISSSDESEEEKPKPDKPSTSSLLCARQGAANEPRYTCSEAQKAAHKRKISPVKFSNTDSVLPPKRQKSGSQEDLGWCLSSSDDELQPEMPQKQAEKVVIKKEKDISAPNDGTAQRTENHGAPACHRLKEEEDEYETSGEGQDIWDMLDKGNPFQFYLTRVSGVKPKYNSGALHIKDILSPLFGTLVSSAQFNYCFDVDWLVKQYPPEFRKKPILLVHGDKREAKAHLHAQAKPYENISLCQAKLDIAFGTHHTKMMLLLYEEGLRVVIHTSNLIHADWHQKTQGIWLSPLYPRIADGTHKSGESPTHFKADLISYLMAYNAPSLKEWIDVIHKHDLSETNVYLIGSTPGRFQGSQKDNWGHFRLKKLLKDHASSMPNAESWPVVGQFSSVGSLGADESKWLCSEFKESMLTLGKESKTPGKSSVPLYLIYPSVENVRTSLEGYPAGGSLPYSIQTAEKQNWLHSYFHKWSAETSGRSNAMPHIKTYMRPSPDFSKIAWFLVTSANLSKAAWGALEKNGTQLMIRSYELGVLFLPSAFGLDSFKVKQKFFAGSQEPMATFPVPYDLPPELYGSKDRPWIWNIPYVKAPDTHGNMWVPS
UniProt Q5JUR7: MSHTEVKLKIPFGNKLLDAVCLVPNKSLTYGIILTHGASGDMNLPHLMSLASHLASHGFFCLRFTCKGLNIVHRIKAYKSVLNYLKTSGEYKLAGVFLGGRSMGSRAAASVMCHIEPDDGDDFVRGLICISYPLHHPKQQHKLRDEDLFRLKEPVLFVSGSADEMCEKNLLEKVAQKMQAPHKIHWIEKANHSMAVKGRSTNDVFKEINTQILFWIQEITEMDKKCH
UniProt Q00059: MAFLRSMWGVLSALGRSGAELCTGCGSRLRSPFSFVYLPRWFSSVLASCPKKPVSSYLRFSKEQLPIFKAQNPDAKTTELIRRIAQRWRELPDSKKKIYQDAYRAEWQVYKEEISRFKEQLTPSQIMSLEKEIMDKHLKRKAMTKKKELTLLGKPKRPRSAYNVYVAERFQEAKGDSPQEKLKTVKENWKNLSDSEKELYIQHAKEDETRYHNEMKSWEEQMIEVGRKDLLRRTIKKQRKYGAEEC
UniProt Q15633: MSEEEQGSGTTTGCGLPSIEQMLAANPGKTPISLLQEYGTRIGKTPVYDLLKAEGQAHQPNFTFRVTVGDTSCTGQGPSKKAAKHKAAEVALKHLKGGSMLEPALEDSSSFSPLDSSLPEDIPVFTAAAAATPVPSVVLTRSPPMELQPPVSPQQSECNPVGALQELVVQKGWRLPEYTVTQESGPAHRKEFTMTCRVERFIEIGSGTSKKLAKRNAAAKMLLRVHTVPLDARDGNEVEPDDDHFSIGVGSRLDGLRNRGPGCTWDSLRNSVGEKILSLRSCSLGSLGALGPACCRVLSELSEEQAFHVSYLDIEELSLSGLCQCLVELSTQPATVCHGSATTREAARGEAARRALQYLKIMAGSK
UniProt P17542, whole entry, looked up: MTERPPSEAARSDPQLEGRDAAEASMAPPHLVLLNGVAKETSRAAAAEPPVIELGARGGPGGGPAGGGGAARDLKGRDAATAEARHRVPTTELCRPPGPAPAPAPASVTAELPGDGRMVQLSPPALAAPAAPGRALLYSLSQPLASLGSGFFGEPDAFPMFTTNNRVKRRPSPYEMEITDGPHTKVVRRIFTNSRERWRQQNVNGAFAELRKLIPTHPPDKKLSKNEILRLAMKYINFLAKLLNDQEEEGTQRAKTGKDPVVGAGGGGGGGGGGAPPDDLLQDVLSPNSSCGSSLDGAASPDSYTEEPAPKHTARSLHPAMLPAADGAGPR
UniProt Q969Z0: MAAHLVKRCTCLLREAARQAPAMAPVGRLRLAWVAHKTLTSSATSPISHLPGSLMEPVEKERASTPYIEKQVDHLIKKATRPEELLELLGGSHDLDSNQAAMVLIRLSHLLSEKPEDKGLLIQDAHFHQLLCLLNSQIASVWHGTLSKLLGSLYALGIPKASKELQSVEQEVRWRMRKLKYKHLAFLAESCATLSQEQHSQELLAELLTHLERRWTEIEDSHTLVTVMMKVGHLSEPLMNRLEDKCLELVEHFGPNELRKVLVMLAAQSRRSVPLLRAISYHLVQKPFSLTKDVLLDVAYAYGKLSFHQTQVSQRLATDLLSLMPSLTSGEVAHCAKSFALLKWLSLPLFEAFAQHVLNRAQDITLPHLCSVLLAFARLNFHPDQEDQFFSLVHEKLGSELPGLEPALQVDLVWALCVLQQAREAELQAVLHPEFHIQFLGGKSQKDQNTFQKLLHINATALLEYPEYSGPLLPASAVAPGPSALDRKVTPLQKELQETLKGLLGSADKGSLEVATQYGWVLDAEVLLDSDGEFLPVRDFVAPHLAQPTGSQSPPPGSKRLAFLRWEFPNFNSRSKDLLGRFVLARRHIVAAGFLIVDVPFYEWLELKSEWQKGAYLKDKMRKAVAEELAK
UniProt Q9H7E2: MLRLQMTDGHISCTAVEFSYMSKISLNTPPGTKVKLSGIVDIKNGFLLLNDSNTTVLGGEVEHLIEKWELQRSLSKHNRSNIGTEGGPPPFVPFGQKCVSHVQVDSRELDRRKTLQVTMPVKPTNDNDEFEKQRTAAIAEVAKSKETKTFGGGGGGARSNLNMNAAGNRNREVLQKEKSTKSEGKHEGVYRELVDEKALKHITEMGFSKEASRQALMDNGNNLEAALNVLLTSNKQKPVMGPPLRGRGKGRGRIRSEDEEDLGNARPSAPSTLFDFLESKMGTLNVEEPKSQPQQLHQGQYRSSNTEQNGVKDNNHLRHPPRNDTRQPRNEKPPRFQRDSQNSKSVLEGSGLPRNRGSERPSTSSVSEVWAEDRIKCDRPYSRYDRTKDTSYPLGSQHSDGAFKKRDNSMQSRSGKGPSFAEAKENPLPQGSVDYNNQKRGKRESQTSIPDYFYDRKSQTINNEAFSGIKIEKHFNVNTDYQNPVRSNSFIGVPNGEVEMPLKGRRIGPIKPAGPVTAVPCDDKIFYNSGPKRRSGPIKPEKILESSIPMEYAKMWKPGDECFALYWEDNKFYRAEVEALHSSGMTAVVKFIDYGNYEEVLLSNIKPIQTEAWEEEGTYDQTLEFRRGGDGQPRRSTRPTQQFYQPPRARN
UniProt Q6NXT6: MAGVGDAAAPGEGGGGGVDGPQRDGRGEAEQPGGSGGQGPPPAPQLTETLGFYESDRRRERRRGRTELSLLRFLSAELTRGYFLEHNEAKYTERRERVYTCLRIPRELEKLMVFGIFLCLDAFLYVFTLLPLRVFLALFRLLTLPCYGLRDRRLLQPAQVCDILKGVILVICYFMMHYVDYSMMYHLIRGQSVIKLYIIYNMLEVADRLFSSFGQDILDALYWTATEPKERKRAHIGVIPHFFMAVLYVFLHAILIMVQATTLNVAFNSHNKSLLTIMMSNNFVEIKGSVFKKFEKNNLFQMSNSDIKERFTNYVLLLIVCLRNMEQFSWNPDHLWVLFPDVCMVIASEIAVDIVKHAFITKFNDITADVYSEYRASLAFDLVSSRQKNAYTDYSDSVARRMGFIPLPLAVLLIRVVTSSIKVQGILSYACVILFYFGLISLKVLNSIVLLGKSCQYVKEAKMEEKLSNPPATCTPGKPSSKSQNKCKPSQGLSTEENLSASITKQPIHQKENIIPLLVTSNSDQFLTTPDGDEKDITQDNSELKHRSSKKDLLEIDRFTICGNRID
UniProt Q14186: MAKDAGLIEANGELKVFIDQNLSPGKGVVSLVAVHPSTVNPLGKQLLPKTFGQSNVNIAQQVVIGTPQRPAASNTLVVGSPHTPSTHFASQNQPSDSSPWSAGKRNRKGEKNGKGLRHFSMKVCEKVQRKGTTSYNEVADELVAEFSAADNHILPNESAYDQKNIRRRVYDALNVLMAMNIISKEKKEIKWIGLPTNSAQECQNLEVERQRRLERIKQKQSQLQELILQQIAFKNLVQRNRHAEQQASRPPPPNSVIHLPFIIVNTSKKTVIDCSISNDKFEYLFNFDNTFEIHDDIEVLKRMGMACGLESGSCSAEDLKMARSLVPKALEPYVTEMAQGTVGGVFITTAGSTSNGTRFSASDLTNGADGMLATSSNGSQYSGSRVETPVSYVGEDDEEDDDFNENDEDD
UniProt Q9Y6J9: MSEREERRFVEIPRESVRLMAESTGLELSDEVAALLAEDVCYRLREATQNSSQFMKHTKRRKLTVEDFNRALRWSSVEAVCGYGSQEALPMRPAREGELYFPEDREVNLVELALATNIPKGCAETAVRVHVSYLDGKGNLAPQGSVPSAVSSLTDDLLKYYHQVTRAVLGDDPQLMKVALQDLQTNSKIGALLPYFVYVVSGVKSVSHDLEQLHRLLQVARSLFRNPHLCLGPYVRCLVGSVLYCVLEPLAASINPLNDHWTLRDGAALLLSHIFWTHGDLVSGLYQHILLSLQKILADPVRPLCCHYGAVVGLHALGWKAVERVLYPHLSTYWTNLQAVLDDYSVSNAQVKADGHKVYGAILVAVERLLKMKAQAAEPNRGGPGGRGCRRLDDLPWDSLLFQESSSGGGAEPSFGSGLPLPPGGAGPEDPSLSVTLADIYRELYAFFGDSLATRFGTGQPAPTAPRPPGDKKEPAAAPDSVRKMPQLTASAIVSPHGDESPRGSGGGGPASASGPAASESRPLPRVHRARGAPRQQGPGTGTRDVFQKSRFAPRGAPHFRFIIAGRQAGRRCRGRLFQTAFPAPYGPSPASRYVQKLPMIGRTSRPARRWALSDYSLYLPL
UniProt Q9UP52: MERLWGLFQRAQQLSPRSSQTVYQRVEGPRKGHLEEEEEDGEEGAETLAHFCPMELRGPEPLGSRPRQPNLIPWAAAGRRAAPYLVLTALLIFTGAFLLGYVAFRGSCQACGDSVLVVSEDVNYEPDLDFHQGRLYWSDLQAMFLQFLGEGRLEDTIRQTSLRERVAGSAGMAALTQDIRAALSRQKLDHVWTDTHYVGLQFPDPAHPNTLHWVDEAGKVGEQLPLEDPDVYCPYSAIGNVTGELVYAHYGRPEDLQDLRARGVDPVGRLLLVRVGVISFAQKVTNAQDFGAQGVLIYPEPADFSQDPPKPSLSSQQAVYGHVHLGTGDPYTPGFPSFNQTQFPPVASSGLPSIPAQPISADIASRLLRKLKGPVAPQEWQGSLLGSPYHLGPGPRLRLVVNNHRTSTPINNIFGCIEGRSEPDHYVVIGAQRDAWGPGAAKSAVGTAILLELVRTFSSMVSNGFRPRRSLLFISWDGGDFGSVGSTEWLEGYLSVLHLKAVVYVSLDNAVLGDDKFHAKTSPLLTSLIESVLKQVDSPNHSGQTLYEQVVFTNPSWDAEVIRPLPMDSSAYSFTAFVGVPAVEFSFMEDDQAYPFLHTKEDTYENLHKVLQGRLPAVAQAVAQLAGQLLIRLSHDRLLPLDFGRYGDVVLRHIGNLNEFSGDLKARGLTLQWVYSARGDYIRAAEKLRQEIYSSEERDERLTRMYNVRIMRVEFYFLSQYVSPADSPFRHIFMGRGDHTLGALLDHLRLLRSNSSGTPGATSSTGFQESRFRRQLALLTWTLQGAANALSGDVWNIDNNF

compound: CC1=C(C=C(C=C1)NC(=O)C2=CC(=CC=C2)N(C)C)NC(=O)C3=CC=C(C=C3)O; assay: log2 fold change, soluble protein after heating vs DMSO (PISA); higher = thermal stabilisation; K562 lysate, 10 uM; active = over 0.2 and 3.5 SD of the protein, either way, in both replicates (recomputed)
Summary of the method: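 Log-two fold change in thermal stability relative to solvent controls is reported from duplicates. For each sample, crude K562 extract from dounce-homogenised pellets in PBS pH 7.4 with 1 mM MgCl2, at 1 mg/mL protein, was treated with 10 μM compound for 30 min. Aliquots heated for 3 min across 48°C-58°C were pooled, brought to 0.5% NP-40 at 4°C and cleared at 21,000xg for 90 min. The supernatant was quantified by TMTpro 16plex LC-MS/MS with channel sums equalised.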

Row | Target | log2 fold change
1 | TBL1XR1 (UniProt Q9BZK7) | inactive: -0.027
2 | TBC1D22B (UniProt Q9NU19) | inactive: 0.047
3 | TF (UniProt P02787) | inactive: 0.014
4 | TCAF2 (UniProt A6NFQ2) | inactive: -0.021
5 | TBC1D22A (UniProt Q8WUA7) | inactive: -0.017
6 | TEX10 (UniProt Q9NXF1) | inactive: 0.018
7 | TBC1D10A (UniProt Q9BXI6) | inactive: 0.022
8 | TALDO1 (UniProt P37837) | inactive: -0.012
9 | TDP1 (UniProt Q9NUW8) | inactive: -0.01
10 | TEX30 (UniProt Q5JUR7) | inactive: 0.019
11 | TCEA1 (UniProt P23193) | inactive: -0.008
12 | TFAM (UniProt Q00059) | inactive: -0.032
13 | TARBP2 (UniProt Q15633) | inactive: 0.062
14 | TCP1 (UniProt P17987) | inactive: -0.022
15 | TAL1 (UniProt P17542) | inactive: 0.048
16 | TBRG4 (UniProt Q969Z0) | inactive: 0.044
17 | TBC1D15 isoform 3 (UniProt Q8TC07) | inactive: 0.002
18 | TDRD3 isoform 3 (UniProt Q9H7E2) | inactive: -0.102
19 | TAPT1 (UniProt Q6NXT6) | inactive: -0.004
20 | TFDP1 (UniProt Q14186) | inactive: -0.094
21 | TAF6L (UniProt Q9Y6J9) | inactive: 0.027
22 | TBC1D9B isoform 2 (UniProt Q66K14) | inactive: -0.003
23 | TFR2 (UniProt Q9UP52) | inactive: -0.015

Reformatted: entries from further up.
TBC1D22A (UniProt Q8WUA7)
  log2 fold change: inactive: -0.017
TEX10 (UniProt Q9NXF1)
  log2 fold change: inactive: 0.018
